The supplement of paper PMC10849652
Some of the results follow.

Sequences of proteins named here, by UniProt entry; tags and fusion partners are left off. A change or cut given only in a name is not applied to a line headed by its entry.
UniProt O95229: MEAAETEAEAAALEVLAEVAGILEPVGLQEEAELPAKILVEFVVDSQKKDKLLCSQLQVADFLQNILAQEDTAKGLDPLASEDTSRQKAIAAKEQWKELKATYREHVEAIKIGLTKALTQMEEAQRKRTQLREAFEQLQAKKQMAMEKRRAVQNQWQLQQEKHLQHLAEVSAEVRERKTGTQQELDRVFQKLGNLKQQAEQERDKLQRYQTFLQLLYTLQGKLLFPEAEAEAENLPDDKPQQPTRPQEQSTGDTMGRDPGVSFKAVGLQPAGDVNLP
UniProt O00488: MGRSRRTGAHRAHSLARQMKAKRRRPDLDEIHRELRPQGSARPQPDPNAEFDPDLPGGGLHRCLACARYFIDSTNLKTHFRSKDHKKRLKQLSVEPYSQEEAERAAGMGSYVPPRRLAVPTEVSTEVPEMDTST
UniProt Q9C0G0: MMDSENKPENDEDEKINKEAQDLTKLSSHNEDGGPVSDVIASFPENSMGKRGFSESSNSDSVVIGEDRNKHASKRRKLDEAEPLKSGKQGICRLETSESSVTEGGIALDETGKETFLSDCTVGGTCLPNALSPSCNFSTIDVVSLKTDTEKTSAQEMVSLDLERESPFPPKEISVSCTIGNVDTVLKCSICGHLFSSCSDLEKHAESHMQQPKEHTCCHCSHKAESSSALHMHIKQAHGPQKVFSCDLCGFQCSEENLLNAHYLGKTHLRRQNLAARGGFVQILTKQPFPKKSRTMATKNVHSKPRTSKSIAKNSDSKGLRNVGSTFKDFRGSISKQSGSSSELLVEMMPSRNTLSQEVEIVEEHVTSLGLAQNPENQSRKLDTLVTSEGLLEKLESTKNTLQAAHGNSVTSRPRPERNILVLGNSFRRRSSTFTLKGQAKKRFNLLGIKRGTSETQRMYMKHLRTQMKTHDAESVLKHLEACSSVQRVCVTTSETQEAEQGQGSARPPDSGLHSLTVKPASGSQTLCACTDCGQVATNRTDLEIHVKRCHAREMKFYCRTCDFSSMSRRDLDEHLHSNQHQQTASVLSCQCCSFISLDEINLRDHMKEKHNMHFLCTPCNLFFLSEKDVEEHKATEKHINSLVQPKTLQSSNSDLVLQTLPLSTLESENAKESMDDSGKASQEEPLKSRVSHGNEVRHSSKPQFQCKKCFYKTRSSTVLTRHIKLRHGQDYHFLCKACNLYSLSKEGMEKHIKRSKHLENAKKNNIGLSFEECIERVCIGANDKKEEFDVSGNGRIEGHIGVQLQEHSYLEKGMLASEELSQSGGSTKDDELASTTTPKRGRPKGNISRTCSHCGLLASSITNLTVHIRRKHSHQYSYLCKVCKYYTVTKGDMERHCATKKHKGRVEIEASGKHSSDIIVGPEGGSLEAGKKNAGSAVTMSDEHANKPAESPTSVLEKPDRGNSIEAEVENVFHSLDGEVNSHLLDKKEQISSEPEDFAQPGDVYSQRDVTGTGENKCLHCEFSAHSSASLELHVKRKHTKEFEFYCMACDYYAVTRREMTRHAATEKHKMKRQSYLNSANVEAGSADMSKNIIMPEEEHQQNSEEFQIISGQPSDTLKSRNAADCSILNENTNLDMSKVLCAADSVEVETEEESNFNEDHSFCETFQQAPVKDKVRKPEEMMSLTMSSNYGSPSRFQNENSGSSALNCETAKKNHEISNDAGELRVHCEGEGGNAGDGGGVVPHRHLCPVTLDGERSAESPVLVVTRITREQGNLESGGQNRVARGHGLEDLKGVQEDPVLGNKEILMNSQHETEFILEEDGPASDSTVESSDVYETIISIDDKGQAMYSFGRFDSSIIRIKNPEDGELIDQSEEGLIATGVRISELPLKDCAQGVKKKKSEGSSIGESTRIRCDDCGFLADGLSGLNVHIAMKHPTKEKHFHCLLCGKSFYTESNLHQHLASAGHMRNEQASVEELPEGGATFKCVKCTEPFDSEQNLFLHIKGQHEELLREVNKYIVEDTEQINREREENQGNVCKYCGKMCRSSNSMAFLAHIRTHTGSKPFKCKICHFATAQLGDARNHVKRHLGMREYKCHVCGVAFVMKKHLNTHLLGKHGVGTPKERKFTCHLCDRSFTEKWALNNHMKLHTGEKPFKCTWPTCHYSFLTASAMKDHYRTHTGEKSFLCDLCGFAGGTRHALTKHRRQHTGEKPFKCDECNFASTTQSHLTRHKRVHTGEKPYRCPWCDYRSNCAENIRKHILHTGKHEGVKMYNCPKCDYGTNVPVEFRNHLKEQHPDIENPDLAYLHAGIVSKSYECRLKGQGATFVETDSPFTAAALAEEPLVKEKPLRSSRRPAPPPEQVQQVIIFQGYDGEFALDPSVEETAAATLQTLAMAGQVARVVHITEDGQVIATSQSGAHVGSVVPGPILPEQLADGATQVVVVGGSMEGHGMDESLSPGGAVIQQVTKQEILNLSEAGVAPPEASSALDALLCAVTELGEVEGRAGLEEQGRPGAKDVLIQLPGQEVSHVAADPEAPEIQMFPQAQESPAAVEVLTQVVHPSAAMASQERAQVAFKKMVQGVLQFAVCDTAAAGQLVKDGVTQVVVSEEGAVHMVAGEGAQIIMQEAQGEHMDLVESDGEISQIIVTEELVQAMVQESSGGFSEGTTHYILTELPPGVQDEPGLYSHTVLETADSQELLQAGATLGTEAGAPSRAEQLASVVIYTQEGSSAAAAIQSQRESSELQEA
UniProt Q96NC0: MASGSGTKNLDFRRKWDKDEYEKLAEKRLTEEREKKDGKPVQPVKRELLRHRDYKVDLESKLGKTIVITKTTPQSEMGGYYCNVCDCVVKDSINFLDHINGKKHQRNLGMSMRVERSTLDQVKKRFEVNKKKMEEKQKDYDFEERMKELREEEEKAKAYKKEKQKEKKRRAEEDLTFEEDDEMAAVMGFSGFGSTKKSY
UniProt A7E2V4, whole entry, looked up: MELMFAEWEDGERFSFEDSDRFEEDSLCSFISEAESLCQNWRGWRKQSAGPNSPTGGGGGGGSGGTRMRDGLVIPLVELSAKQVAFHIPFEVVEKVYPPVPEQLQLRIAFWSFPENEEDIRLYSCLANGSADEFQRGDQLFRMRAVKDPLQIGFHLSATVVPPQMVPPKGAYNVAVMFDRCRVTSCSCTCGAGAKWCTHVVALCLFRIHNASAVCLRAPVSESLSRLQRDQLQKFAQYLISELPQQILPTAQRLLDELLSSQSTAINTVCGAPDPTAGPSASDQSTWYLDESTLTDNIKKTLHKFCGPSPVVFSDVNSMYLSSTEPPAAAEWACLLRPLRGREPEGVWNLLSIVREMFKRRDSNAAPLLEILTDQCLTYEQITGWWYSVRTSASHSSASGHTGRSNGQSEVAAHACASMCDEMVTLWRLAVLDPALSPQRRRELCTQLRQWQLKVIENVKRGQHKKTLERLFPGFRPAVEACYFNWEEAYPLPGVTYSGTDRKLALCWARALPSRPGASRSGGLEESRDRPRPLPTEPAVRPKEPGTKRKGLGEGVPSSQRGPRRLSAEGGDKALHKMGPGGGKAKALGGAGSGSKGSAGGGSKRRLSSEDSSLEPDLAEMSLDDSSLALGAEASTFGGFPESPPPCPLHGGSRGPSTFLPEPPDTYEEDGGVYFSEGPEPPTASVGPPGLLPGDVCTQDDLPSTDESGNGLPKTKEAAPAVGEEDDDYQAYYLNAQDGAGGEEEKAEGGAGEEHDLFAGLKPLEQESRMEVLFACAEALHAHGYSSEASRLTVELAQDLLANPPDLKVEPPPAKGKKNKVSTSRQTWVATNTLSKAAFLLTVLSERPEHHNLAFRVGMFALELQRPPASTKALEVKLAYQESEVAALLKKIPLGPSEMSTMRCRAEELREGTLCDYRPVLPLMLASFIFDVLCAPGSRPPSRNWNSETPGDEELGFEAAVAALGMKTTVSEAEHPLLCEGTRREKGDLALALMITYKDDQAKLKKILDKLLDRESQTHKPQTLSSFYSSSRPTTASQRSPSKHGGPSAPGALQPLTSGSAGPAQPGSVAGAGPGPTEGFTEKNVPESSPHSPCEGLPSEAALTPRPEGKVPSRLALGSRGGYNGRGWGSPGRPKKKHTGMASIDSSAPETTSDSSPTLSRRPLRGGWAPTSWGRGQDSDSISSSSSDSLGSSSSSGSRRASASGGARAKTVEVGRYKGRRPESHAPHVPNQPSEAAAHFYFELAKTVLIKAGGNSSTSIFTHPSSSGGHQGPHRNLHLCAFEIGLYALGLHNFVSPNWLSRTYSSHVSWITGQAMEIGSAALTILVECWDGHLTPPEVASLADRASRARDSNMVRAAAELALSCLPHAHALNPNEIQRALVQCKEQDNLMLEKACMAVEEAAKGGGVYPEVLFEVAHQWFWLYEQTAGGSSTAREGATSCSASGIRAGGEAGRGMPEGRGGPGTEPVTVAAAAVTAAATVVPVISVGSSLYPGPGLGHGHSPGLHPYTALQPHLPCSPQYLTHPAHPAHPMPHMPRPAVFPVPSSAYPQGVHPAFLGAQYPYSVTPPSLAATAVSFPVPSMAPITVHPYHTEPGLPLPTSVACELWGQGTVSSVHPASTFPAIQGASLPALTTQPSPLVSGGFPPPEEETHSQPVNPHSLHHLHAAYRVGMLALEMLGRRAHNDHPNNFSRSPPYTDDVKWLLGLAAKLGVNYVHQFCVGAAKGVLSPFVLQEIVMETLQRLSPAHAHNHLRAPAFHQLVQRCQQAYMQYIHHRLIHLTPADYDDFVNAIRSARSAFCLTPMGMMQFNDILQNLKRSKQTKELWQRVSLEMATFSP
UniProt Q8TCN5: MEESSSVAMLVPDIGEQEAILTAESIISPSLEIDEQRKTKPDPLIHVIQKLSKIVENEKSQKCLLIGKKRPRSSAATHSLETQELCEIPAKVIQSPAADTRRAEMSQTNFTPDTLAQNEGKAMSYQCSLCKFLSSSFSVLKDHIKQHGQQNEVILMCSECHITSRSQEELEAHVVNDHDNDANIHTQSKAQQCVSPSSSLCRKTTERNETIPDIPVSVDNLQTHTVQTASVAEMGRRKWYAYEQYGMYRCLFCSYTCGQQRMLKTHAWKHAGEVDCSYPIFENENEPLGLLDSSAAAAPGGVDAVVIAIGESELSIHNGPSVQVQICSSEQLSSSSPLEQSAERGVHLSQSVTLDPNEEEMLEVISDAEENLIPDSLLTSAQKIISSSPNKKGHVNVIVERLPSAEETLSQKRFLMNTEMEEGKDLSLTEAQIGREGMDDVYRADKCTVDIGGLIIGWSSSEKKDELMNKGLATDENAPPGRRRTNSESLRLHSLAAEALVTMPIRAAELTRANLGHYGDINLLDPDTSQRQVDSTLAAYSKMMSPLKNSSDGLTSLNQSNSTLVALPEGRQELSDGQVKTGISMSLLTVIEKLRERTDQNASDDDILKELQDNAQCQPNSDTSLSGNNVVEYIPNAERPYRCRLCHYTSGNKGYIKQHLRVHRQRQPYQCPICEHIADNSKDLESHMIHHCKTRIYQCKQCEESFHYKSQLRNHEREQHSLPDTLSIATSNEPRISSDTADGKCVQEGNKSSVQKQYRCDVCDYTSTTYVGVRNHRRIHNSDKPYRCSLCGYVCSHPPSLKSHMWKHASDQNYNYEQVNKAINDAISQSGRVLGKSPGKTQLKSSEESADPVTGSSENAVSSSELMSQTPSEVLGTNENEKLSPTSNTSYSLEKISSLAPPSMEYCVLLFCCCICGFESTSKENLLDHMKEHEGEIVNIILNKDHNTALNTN
UniProt Q9NWK9: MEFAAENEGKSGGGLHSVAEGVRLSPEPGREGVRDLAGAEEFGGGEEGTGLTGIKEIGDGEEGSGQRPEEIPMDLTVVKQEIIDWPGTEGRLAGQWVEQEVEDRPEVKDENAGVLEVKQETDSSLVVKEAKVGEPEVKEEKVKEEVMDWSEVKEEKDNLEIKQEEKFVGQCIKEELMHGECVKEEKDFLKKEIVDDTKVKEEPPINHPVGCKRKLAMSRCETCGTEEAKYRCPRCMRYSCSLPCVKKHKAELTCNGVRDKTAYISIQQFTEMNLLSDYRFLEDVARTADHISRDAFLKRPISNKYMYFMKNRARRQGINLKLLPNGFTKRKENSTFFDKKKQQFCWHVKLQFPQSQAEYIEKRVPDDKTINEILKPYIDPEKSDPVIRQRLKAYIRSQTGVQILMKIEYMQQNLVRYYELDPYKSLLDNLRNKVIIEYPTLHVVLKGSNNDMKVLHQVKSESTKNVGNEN
UniProt Q6DD87: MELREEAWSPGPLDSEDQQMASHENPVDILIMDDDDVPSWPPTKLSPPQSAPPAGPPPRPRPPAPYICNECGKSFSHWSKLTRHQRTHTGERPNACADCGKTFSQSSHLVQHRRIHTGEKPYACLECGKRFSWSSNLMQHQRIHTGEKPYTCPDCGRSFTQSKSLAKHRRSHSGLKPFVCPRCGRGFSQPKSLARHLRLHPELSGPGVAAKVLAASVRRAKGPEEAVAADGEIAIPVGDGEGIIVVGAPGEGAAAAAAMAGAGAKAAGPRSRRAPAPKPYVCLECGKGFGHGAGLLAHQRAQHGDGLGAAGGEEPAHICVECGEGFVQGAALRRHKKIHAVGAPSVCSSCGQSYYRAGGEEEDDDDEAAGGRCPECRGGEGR
UniProt Q9Y5V0: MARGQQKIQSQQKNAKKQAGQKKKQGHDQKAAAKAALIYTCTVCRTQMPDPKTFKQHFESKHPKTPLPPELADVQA

Columns and labels:
Test in all cases: log2 fold change, soluble protein after heating vs DMSO (PISA); higher = thermal stabilisation; K562 lysate, 10 uM; active = over 0.2 and 3.5 SD of the protein, either way, in both replicates (recomputed)
[1] = compound: C1=CC=C(C=C1)[C@H](COC2=CC3=C(C=C2)NC(=O)N3)NC(=O)C4=CC=CN(C4=O)CC5=CC(=C(C=C5)F)F
Method in brief: (§1)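 Log-two fold change in thermal stability relative to solvent controls is reported from duplicates. For each sample, crude K562 extract from dounce-homogenised pellets in PBS pH 7.4 with 1 mM MgCl2, at 1 mg/mL protein, was treated with 10 μM compound for 30 min. Aliquots heated for 3 min across 48°C-58°C were pooled, brought to 0.5% NP-40 at 4°C and cleared at 21,000xg for 90 min. The supernatant was quantified by TMTpro 16plex LC-MS/MS with channel sums equalised.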

[2] = compound: CC1=C(SC2=C1C(=N[C@H](C3=NN=C(N32)C)CC(=O)N)C4=CC=C(C=C4)Cl)C
Method in brief: as §1

[3] = compound: CC1=C2C(=CC=C1)N=C(N(C2=O)C3=CC=CC=C3C)CN4C=NC5=C(N=CN=C54)N
Method in brief: as §1

[4] = compound: Cc1sc2c(c1C)C(c1ccc(Cl)cc1)=N[C@@H](CC(=O)OC(C)(C)C)c1nnc(C)n1-2
Method in brief: as §1

[5] = compound: c1ccc([C@@H]2C[C@H]2NC2CCNCC2)cc1
Method in brief: as §1

Measured: log2 fold change

ZNF24 (UniProt P17028)
inactive: [1] 0.092 | [2] -0.014 | [3] 0.032 | [4] -0.037 | [5] -0.058

ZNRD2 (UniProt O60232)
inactive: [1] -0.061 | [2] 0.027 | [3] 0.017 | [4] 0.005 | [5] 0.078

ZNF460 (UniProt Q14592)
inactive: [1] -0.069 | [2] 0.081 | [3] -0.058

ZMIZ2 (UniProt Q8NF64)
inactive: [1] 0.036 | [2] -0.056 | [3] 0.076 | [4] -0.082 | [5] -0.001

ZNF8 (UniProt P17098)
inactive: [1] -0.313 | [2] -0.109 | [3] 0.048 | [4] -0.106 | [5] 0.045

ZNF525 (UniProt J3KR51)
inactive: [1] -0.086 | [2] -0.059 | [3] -0.001

ZNF561-AS1 (UniProt K7EIQ3)
inactive: [1] 0 | [2] 0.093

ZNF618 (UniProt Q5T7W0)
inactive: [1] -0.03 | [2] -0.048 | [3] 0.044 | [4] -0.059 | [5] -0.099

ZNF579 (UniProt Q8NAF0)
inactive: [1] 0.064 | [2] 0.038 | [3] -0.104 | [4] -0.188 | [5] -0.093

ZNF277 (UniProt Q9NRM2)
inactive: [1] -0.042 | [2] 0.049 | [3] 0.004 | [4] 0.042 | [5] -0.003

ZKSCAN1 (UniProt P17029)
inactive: [1] 0 | [2] 0.052 | [3] -0.005 | [4] 0.003 | [5] -0.013

ZWINT (UniProt O95229)
inactive: [1] 0.016 | [2] 0.042 | [3] -0.047 | [4] 0.025 | [5] -0.027

ZNF445 (UniProt P59923)
inactive: [1] 0.017 | [2] 0.074 | [3] 0.029 | [4] -0.058

ZNF609 (UniProt O15014)
inactive: [1] 0.009 | [2] 0.008 | [3] 0.078 | [4] -0.047 | [5] -0.082

ZNF207 isoform 2 (UniProt O43670)
inactive: [1] 0.063 | [2] 0.012 | [3] -0.134 | [4] -0.175

ZNF417 (UniProt Q8TAU3)
inactive: [1] -0.072 | [2] 0.073

Two consecutive records already listed, quoted:
ZNF445 (UniProt P59923)
inactive: [1] 0.017 | [2] 0.074 | [3] 0.029 | [4] -0.058

ZNF609 (UniProt O15014)
inactive: [1] 0.009 | [2] 0.008 | [3] 0.078 | [4] -0.047 | [5] -0.082

(list continues)

ZWILCH (UniProt Q9H900)
inactive: [1] 0.043 | [2] 0.032 | [3] 0.05 | [4] 0 | [5] -0.005

ZNF511 (UniProt Q8NB15)
inactive: [1] -0.014 | [2] 0.006 | [3] 0.025 | [4] 0.073 | [5] -0.111

ZNF92 (UniProt Q03936)
inactive: [1] -0.039 | [2] 0.114 | [3] -0.064 | [4] 0.095 | [5] 0.078

ZNF100 (UniProt Q8IYN0)
inactive: [1] -0.092 | [2] -0.202

ZMYM4 (UniProt Q5VZL5)
inactive: [1] 0.133 | [2] -0.081 | [3] -0.054 | [4] -0.023 | [5] 0.011

ZNF143 (UniProt P52747)
inactive: [1] 0.04 | [2] -0.059 | [3] -0.014 | [4] -0.045 | [5] -0.008

ZYG11B (UniProt Q9C0D3)
inactive: [1] 0.028 | [2] 0.026 | [3] 0.029 | [4] -0.015 | [5] -0.005

ZNF330 (UniProt Q9Y3S2)
inactive: [1] 0.033 | [2] -0.038 | [3] -0.057 | [4] 0.005 | [5] -0.177

ZNF629 (UniProt Q9UEG4)
inactive: [1] -0.121 | [2] 0.196 | [3] -0.014 | [4] 0.029 | [5] 0.089

ZRANB2 (UniProt O95218)
inactive: [1] 0.061 | [2] -0.018 | [3] -0.014 | [4] -0.041 | [5] -0.005

ZNF225 (UniProt Q9UK10)
inactive: [1] -0.08 | [2] 0.136 | [3] 0.04 | [4] -0.182

ZNF385A (UniProt Q96PM9)
inactive: [1] 0.034 | [2] -0.09

ZNHIT1 (UniProt O43257)
inactive: [1] -0.099 | [2] 0.003

ZNF593 (UniProt O00488)
inactive: [1] -0.038 | [2] 0.051 | [3] 0.008 | [4] 0.127 | [5] 0.035

ZNF598 isoform 3 (UniProt Q86UK7)
inactive: [1] -0.037 | [2] -0.014 | [3] 0.006 | [4] 0.034 | [5] 0.025

ZNF407 (UniProt Q9C0G0)
inactive: [1] -0.06 | [2] 0.078 | [3] 0.051 | [4] -0.134 | [5] -0.041

ZNF691 (UniProt Q5VV52)
inactive: [1] -0.016 | [2] 0.047 | [3] -0.014 | [4] 0.005 | [5] -0.228

ZNF318 (UniProt Q5VUA4)
inactive: [1] -0.017 | [2] 0.133 | [3] 0 | [4] 0.018 | [5] 0.038

ZNF768 (UniProt Q9H5H4)
inactive: [1] 0.096 | [2] -0.08 | [3] 0.047 | [4] 0.029 | [5] -0.023

ZYX (UniProt Q15942)
inactive: [1] 0.022 | [2] -0.008 | [3] -0.041 | [4] -0.034 | [5] -0.016

ZMYND8 isoform 19 (UniProt Q9ULU4)
inactive: [1] -0.006 | [2] -0.011 | [3] 0.055 | [4] 0.011 | [5] -0.026

ZPR1 (UniProt O75312)
inactive: [1] 0.015 | [2] -0.018 | [3] 0.003 | [4] 0.027 | [5] 0.004

ZMYM2 (UniProt Q9UBW7)
inactive: [1] 0.105 | [2] 0.07 | [3] 0.062 | [4] 0.015 | [5] 0.183

ZMAT2 (UniProt Q96NC0)
inactive: [1] 0.037 | [2] -0.01 | [3] 0.03 | [4] 0.03 | [5] 0.013

ZSWIM8 isoform 4 (UniProt A7E2V4)
inactive: [1] 0.076 | [2] -0.038 | [3] 0.071 | [4] 0.013 | [5] 0.03

ZMIZ1 (UniProt Q9ULJ6)
inactive: [1] -0.005 | [2] 0.023 | [3] 0.058 | [4] 0.038 | [5] -0.079

ZNF428 (UniProt M0QXZ5)
inactive: [1] 0.083 | [2] 0.052 | [3] -0.049 | [4] 0.065 | [5] -0.135

ZNF507 (UniProt Q8TCN5)
inactive: [1] 0.027 | [2] -0.045 | [3] -0.06 | [4] 0.032 | [5] 0.002

ZHX3 (UniProt Q9H4I2)
inactive: [1] -0.221 | [2] 0.057 | [3] -0.135 | [4] -0.021 | [5] -0.04

ZMPSTE24 (UniProt O75844)
inactive: [1] 0.023 | [2] -0.02 | [3] 0.005 | [4] -0.024 | [5] -0.109

ZNHIT6 (UniProt Q9NWK9)
inactive: [1] 0.106 | [2] -0.063 | [3] 0.013 | [4] 0.089 | [5] 0.008

ZHX1 (UniProt Q9UKY1)
inactive: [1] 0.016 | [2] 0.036 | [3] 0.022 | [4] -0.224 | [5] -0.22

ZNF644 (UniProt Q9H582)
inactive: [1] 0 | [2] 0.003 | [3] -0.098 | [4] -0.009 | [5] 0.01

ZNF672 (UniProt Q499Z4)
inactive: [1] 0.058 | [2] -0.048 | [3] 0.017 | [4] -0.003 | [5] 0.105

ZZZ3 (UniProt Q8IYH5)
inactive: [1] -0.129 | [2] -0.016 | [3] 0.057 | [4] 0.035 | [5] -0.049

ZNF787 (UniProt Q6DD87)
inactive: [1] 0.114 | [2] -0.151 | [3] -0.053 | [4] -0.055 | [5] -0.095

ZNF512 (UniProt Q96ME7)
inactive: [1] 0.009 | [2] -0.088 | [3] 0.028 | [4] 0.099 | [5] 0.074

ZNF706 (UniProt Q9Y5V0)
inactive: [1] 0.004 | [2] 0.02 | [3] 0.027 | [4] -0.003 | [5] -0.031

ZNF451 (UniProt Q9Y4E5)
inactive: [1] -0.038 | [2] 0.03 | [3] -0.014 | [4] 0.018 | [5] 0.009

ZNF638 (UniProt Q14966)
inactive: [1] 0.045 | [2] 0.012 | [3] 0.054 | [4] 0.031 | [5] 0.069
